Experimental data from patent US20080269258A1, “Riboswitches, Structure-Based Compound Design with Riboswitches, and Methods and Compositions for Use of and with Riboswitches” (priority 2004, published 2008).
Some results were stated once for a whole list of compounds, not compound by compound.

Target: guanine riboswitch (aptamer of the xpt-pbuX mRNA)
Test: In-line probing of ligand binding to the guanine riboswitch in vitro
Set-up: species or system B. subtilis
Details: 201 xpt RNA
Description: The putative anti-terminator interaction is represented by the boxes. Nucleotides that undergo structural alteration as determined by in-line probing (from C) are identified with squares. […] Asterisks denote alterations to the RNA sequence that facilitate in vitro transcription (5′ terminus) or that generate a restriction site (3′ terminus). Nucleotide numbers begin at the first nucleotide of the natural transcription start site. The translation start codon begins at position 186. […] Lanes designated NR, T1 and ^−OH contain RNA that was not reacted, subjected to partial digestion with RNase T1 (G-specific cleavage), or subjected to partial alkaline digestion, respectively. Selected bands corresponding to G-specific cleavage are identified.
Differences in chemical structure relative to guanine are encircled. Numbers on guanine represent the positions of the ring nitrogen atoms.
NR, T1 and OH identify no reaction, nuclease T1 partial digestion, and alkaline partial digestion respectively. In-line probing assays were conducted for ˜1 day, and a dampening of spontaneous RNA cleavage product bands in the J1/2, J2/3 and J3/1 regions are indicative of ligand binding.

SMILES	Kd [µM]
OC[C@H]1O[C@@H](n2cnc3c(O)ncnc32)[C@H](O)[C@@H]1O [inosine]	> 100
Nc1nc2c(ncn2[C@@H]2O[C@H](CO)[C@@H](O)[C@H]2O)c(=O)[nH]1 [guanosine]	> 100
